From publication PMC12489035

By UniProt entry, the sequences of proteins in these tests, tags left out.
UniProt Q7Z4V5: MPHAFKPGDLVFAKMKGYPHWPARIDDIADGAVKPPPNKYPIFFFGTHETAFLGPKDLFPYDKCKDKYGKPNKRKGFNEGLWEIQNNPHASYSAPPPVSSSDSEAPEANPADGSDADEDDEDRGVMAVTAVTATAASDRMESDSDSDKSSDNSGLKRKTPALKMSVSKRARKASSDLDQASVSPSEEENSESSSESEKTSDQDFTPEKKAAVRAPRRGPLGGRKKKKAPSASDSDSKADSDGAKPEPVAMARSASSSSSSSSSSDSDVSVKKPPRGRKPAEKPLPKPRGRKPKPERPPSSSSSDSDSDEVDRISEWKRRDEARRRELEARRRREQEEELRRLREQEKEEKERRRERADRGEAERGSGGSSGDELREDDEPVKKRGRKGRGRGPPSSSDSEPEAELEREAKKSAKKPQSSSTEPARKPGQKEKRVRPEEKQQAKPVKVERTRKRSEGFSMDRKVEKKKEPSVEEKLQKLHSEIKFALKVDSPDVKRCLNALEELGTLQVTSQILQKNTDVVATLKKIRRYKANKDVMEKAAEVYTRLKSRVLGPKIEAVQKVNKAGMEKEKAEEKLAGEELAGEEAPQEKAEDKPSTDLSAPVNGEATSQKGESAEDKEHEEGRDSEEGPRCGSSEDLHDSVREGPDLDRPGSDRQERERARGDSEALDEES
UniProt Q9Y2A7: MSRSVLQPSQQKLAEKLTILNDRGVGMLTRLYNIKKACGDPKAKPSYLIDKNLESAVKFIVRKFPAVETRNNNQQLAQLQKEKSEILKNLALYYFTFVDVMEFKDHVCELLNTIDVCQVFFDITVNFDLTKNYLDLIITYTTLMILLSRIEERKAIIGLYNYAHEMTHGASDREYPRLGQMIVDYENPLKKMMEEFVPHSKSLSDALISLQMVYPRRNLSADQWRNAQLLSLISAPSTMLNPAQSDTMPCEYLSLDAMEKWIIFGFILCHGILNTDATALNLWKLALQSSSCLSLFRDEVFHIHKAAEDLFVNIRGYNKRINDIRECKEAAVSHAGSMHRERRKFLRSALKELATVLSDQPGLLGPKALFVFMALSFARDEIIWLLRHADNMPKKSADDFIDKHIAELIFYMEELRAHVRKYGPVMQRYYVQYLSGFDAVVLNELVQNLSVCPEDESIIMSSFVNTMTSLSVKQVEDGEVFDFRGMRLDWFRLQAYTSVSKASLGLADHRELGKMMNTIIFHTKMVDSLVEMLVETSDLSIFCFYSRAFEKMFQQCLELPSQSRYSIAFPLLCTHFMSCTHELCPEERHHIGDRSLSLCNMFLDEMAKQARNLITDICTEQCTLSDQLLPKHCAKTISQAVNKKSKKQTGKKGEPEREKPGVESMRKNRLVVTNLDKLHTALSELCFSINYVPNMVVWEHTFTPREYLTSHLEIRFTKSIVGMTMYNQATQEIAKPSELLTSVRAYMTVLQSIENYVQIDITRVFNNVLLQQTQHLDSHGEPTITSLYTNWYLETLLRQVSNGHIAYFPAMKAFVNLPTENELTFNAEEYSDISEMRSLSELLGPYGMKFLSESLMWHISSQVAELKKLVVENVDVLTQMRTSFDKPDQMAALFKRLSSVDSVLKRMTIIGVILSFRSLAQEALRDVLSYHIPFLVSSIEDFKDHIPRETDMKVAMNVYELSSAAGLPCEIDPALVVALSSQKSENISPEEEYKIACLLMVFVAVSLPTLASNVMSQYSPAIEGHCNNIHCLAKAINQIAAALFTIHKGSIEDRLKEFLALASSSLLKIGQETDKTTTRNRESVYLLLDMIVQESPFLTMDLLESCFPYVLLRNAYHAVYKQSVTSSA
UniProt P49757: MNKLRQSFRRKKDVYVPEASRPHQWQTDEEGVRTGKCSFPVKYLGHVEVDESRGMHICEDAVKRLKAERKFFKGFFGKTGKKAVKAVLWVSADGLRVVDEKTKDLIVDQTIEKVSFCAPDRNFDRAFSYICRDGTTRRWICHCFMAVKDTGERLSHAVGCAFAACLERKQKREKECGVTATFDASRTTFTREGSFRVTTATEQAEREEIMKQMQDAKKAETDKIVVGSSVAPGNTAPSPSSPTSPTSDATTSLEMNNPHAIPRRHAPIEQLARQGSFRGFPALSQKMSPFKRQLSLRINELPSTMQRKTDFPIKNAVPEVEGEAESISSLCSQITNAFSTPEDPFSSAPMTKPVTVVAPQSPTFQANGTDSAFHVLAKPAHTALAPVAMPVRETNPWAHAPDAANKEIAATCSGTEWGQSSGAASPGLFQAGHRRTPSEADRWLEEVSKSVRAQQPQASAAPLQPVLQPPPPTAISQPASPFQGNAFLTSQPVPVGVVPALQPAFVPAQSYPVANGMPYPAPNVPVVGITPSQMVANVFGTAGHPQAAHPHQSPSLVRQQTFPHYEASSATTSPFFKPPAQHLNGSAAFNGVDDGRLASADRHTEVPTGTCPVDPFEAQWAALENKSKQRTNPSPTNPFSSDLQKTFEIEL
UniProt Q9NR12: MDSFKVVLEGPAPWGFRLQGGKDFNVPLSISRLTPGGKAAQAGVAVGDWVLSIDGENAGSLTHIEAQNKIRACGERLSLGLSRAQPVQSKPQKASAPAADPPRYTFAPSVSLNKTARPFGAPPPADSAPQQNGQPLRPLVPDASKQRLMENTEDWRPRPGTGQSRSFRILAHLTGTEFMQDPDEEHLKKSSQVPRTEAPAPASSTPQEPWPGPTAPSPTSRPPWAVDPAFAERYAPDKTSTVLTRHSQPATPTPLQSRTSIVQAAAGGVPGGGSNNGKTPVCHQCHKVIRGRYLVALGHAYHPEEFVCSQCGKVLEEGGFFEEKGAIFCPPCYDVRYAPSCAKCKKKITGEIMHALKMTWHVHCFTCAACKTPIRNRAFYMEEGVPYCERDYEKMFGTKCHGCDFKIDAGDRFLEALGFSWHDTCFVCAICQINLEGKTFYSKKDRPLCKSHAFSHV
UniProt Q9Y3P9: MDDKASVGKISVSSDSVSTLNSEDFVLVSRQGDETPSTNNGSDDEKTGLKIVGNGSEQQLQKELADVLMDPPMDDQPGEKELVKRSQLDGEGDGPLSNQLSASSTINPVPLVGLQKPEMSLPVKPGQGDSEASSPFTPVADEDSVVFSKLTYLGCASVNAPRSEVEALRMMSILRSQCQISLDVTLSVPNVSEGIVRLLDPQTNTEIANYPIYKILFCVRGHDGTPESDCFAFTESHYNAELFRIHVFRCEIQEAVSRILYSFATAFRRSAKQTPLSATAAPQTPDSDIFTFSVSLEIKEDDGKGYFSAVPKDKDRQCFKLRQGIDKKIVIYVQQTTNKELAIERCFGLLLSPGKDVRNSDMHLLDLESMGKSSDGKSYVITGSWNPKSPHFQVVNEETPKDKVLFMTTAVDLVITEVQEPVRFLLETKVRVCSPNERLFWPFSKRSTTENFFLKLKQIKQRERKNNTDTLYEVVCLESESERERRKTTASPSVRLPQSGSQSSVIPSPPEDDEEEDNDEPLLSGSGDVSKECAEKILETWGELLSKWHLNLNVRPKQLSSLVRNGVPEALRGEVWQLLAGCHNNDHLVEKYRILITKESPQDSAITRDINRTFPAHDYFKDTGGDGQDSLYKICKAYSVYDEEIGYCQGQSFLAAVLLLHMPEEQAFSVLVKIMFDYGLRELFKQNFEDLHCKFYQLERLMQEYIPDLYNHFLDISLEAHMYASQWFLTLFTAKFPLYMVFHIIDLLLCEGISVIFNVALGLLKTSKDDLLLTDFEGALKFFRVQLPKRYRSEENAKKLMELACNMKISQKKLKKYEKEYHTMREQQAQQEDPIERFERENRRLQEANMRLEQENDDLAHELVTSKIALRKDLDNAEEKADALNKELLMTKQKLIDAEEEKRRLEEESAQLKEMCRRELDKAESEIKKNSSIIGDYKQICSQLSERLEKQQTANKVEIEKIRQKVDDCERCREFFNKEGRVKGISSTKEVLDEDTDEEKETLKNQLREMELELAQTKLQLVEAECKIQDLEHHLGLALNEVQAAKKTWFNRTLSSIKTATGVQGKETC
UniProt Q4G0F5: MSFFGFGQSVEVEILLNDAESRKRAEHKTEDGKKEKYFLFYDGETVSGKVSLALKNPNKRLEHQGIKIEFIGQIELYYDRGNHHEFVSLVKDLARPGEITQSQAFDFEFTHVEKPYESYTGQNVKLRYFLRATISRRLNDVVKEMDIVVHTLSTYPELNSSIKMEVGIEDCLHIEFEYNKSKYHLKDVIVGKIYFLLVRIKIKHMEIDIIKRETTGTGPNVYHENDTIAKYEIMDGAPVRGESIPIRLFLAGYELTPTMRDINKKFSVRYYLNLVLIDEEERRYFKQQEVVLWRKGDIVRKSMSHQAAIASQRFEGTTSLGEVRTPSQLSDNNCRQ

molecular target: GST fused to the WT cytosolic tail of APP (649-695) (UniProt P05067); test: affinity purification with mass spectrometry; GST-APP tail (or GST only) on glutathione-Sepharose beads, incubated overnight at 4 °C with pre-cleared HEK293T lysate in 50 mM Tris pH 7.4, 150 mM NaCl, 1 mM EDTA, 5 mM 2-mercaptoethanol, 1% triton-X100; eluted with […] NaCl; LC-MS/MS; three independent experiments; only the target purified

binding, binds:
HDGFL2 (from UniProt Q7Z4V5 1-671)
NCKAP1 (from UniProt Q9Y2A7 1-1128)
NUMB (from UniProt P49757 1-651)
PDLIM7 (from UniProt Q9NR12 1-457)
RABGAP1 (from UniProt Q9Y3P9 1-1069)
VPS26A (from UniProt O75436 1-327)
VPS26B (from UniProt Q4G0F5 1-336)

No constants are given. Whether binding was seen depends on the method and setting. In cells and extracts the contact can be indirect. These calls come from enrichment with a bait or labelling near it, and not all partners need be listed.
